The source of these data is paper PMC10185561, “RagD auto-activating mutations impair MiT/TFE activity in kidney tubulopathy and cardiomyopathy syndrome” (Nature Communications, 2023).

The chains behind the UniProt entries cited, without tags or fusion partners. Where a name states a change or a piece, a line headed by the entry shows the natural chain unless it says otherwise. A line that says so, or that is headed by a name, gives the form on record, which may keep a tag or linker.
UniProt P19484: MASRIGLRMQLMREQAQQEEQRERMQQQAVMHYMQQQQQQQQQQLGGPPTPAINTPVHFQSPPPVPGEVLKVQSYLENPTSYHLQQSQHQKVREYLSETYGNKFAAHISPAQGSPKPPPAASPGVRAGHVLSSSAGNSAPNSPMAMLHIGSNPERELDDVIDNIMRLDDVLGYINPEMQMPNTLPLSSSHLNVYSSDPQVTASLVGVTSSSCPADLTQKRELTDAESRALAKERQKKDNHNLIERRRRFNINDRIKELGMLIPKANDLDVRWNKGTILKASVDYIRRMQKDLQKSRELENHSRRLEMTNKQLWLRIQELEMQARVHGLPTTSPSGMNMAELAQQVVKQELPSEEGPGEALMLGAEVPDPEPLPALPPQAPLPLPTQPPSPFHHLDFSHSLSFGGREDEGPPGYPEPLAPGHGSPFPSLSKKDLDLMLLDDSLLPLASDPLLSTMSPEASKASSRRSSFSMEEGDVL
HA-GST-RagD I221K (Q9NQL2-1, form named): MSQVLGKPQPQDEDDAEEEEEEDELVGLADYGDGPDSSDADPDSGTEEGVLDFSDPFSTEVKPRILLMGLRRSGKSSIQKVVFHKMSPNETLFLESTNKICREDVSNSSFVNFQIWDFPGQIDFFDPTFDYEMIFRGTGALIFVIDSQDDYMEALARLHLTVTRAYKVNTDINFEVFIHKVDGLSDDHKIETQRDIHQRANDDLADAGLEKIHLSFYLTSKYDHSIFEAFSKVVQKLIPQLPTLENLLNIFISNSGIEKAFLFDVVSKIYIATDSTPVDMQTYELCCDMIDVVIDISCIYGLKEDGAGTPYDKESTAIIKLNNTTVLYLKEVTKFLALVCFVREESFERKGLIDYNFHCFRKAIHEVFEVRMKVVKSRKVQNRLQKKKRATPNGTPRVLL
HA-GST-RagD P88L (Q9NQL2-1, form named): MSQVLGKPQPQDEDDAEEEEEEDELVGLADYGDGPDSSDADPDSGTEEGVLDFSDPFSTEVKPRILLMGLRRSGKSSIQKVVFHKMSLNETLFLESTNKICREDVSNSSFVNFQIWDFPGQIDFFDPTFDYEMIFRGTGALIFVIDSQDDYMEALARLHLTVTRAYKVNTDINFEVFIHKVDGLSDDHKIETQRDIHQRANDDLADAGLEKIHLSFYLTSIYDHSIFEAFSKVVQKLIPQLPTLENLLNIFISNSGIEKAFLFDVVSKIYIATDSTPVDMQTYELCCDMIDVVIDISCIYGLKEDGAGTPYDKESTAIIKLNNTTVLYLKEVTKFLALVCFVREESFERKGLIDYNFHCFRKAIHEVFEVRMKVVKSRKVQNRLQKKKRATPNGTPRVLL
HA-GST-RagD S76L (Q9NQL2-1, form named): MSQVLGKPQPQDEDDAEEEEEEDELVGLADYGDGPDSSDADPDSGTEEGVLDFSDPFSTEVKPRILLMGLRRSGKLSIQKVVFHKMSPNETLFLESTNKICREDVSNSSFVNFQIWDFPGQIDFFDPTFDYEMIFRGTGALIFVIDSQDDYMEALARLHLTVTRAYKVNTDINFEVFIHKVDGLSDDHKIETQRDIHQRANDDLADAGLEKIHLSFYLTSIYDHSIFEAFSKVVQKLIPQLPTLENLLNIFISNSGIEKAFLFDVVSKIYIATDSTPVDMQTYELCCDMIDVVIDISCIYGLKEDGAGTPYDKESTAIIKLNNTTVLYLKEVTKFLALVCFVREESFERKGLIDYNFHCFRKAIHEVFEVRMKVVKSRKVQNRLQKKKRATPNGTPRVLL
HA-GST-RagD T97P (Q9NQL2-1, form named): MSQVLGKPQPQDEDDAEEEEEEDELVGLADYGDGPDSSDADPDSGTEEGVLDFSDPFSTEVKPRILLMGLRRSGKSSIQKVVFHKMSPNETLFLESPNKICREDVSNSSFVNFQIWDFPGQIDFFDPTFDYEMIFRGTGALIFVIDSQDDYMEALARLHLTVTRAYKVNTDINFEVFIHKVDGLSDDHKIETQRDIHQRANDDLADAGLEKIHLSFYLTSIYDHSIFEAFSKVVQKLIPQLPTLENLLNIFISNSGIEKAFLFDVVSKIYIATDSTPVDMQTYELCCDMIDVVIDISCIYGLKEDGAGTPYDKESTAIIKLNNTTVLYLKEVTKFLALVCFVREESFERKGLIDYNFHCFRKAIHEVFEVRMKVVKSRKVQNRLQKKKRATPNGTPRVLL
HA-GST-RagD P119L (Q9NQL2-1, form named): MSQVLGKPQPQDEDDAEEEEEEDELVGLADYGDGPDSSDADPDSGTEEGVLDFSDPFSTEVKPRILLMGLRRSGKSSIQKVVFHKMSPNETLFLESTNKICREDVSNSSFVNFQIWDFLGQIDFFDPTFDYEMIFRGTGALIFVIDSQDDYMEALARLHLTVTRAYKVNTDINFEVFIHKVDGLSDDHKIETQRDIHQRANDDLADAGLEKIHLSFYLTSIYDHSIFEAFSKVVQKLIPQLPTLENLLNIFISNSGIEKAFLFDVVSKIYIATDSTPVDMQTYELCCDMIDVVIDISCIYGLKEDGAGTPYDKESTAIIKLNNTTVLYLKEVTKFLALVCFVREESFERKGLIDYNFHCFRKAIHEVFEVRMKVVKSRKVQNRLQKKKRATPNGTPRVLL

Results are given in words; binding and its absence hold for the method and conditions named. In cells and extracts the contact can be indirect. Some binding calls cover weakened binding; strength is not graded here.

This assay has as its target FLAG-TFEB (UniProt P19484). In words: co-IP; HeLa FLCN KO cells transfected with TFEB-FLAG (bait), RagD-HA-GST WT or mutants and an equimolar amount of RagA-HA-GST; NP-40 lysis buffer (50 mM Tris-HCl pH 7.5, 100 mM NaCl, 0.5% NP-40); FLAG M2 beads, 4 °C, 2 h; immunoblot.
With “HA-GST-RagD I221K (from UniProt Q9NQL2-1 1-400)”, the binding entry is listed as “binds”.
As to “HA-GST-RagD P88L (from UniProt Q9NQL2-1 1-400)”, the binding entry is “binds”.
Take “HA-GST-RagD S76L (from UniProt Q9NQL2-1 1-400)”: the binding result was “binds”.
Next, “HA-GST-RagD T97P (from UniProt Q9NQL2-1 1-400)”: “binds”; “HA-GST-RagD P119L (from UniProt Q9NQL2-1 1-400)”: “binds”.
